Measurements from the supplement of paper PMC12819154, “High-throughput peptide-centric local stability assay extends protein–ligand identification to membrane proteins, tissues and bacteria” (Nature Structural & Molecular Biology, 2025).
This is one part of the list. Small differences around the control level are noise.

Protein sequences, listed by entry. Tags and fused reporters are not part of them. Lines headed by an entry give the natural chain unless they say otherwise; changes in a name come on top.
UniProt Q8C7V3: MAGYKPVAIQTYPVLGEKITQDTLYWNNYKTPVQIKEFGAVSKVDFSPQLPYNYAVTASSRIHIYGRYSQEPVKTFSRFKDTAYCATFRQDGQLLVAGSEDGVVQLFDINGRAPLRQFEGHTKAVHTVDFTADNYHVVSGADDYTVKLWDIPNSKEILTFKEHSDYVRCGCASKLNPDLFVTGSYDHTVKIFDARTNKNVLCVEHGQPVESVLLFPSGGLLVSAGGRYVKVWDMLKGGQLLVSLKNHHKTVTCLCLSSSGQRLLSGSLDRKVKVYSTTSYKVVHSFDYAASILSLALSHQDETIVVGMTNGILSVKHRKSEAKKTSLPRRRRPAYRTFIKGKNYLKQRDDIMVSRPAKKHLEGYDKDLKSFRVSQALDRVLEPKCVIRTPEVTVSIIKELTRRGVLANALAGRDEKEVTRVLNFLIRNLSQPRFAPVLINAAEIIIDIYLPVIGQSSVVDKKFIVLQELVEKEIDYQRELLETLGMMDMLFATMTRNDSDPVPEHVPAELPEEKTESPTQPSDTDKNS
UniProt Q8C8T8: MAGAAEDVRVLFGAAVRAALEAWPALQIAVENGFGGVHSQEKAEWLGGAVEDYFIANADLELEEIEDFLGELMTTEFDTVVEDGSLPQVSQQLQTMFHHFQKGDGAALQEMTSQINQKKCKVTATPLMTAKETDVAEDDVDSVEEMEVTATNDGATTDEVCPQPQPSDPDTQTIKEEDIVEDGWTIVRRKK
UniProt Q8C3P7, whole entry: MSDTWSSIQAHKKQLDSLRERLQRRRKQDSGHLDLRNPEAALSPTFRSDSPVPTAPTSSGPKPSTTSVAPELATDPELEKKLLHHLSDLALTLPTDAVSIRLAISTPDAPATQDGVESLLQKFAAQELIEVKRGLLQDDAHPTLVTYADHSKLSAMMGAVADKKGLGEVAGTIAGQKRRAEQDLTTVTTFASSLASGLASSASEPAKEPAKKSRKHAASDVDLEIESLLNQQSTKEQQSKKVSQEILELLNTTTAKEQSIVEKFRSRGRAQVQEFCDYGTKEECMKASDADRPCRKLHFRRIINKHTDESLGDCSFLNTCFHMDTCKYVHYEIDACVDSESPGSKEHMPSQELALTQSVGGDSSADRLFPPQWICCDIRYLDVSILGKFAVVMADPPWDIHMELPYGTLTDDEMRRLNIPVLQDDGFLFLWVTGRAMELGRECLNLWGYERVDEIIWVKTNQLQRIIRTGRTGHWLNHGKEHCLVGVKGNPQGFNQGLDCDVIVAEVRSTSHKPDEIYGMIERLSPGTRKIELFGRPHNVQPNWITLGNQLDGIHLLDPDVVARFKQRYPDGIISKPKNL
UniProt Q8C0T7: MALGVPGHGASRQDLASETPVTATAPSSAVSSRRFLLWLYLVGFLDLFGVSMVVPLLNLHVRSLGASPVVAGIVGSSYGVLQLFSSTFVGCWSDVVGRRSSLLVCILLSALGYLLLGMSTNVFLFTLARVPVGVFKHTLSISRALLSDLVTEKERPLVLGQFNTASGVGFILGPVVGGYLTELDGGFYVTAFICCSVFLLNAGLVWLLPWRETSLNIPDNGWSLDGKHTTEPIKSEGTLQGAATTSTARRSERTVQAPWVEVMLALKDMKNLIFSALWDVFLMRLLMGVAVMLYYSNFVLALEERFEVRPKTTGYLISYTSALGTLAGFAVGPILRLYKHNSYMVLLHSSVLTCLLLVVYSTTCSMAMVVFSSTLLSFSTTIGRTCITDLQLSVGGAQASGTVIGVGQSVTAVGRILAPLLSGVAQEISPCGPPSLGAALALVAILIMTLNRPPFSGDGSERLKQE
UniProt Q8BYU6: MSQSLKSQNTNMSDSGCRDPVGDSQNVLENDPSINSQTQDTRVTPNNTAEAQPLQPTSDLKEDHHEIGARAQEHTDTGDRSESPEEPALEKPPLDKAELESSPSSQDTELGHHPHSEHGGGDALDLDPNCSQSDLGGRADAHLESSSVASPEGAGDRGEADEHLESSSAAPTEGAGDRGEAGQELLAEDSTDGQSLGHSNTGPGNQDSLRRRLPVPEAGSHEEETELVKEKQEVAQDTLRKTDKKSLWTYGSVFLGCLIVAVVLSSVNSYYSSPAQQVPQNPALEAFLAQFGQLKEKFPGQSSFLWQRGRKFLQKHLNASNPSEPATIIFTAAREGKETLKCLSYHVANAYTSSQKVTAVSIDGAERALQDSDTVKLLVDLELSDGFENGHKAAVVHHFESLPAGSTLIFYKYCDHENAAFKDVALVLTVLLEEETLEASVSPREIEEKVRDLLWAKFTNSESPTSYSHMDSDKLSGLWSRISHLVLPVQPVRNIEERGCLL
UniProt Q8BVU5: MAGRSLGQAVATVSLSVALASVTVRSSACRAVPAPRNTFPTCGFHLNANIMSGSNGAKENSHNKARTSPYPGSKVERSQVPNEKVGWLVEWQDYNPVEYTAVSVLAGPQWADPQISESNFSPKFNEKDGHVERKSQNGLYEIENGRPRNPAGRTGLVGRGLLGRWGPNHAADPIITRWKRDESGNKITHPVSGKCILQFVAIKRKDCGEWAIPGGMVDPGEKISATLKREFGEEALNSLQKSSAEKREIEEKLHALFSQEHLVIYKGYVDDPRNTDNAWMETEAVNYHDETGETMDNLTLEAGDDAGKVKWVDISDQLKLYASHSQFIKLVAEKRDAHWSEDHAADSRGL
UniProt Q8C6B2: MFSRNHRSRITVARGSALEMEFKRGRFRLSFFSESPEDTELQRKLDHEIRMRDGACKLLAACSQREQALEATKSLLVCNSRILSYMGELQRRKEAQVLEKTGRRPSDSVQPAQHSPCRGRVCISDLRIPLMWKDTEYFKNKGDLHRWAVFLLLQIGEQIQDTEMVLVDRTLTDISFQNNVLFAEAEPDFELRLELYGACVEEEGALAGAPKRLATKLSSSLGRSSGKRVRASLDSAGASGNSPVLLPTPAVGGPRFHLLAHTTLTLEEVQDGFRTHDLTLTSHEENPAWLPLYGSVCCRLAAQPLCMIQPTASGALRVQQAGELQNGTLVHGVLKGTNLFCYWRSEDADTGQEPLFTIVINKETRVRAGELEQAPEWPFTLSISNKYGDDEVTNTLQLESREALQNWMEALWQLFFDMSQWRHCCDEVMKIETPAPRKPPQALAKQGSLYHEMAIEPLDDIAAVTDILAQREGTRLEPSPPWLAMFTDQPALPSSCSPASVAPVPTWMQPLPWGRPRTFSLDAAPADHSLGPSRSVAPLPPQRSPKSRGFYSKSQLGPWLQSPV
UniProt Q8C0L9: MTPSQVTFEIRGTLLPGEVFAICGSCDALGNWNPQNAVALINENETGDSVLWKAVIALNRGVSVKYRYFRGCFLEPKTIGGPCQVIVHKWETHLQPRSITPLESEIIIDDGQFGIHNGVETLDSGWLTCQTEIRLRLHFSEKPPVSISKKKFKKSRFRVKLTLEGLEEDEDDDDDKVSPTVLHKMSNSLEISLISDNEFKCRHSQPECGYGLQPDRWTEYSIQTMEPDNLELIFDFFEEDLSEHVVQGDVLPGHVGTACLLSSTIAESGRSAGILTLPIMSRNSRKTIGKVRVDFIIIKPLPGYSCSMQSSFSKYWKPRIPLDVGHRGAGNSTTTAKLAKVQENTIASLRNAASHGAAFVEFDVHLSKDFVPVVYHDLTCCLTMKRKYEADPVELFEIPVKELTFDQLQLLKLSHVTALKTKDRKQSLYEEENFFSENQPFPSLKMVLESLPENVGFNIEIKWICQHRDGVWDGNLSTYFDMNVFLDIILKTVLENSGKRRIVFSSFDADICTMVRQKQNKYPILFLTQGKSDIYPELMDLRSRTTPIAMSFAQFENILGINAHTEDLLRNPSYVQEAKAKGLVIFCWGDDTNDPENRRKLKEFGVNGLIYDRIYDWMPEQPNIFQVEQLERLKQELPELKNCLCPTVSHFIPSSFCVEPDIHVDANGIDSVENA
UniProt Q8C7V8: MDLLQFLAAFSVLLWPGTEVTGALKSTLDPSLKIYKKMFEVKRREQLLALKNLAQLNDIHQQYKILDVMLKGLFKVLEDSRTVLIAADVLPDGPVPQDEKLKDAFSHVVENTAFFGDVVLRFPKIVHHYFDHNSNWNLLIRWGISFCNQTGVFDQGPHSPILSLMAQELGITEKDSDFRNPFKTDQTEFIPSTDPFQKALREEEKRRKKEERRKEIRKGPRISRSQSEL
UniProt Q8C2E4: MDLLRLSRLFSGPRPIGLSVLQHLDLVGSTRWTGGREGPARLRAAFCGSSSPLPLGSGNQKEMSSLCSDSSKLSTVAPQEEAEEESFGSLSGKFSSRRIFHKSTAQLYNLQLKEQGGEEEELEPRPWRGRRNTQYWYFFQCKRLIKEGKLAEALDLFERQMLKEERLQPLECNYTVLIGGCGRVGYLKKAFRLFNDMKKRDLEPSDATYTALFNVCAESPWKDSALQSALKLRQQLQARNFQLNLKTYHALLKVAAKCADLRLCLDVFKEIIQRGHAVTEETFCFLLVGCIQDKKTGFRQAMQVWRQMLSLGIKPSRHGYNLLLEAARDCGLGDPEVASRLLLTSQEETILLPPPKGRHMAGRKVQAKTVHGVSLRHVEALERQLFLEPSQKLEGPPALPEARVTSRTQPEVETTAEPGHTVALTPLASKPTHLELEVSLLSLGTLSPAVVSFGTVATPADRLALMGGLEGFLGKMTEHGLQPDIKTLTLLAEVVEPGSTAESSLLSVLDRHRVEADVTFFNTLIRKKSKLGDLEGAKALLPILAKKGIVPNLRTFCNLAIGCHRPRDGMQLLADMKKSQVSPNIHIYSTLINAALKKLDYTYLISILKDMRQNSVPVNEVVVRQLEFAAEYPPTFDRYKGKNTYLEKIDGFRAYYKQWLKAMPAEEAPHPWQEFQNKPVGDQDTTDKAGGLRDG
UniProt Q8BX80: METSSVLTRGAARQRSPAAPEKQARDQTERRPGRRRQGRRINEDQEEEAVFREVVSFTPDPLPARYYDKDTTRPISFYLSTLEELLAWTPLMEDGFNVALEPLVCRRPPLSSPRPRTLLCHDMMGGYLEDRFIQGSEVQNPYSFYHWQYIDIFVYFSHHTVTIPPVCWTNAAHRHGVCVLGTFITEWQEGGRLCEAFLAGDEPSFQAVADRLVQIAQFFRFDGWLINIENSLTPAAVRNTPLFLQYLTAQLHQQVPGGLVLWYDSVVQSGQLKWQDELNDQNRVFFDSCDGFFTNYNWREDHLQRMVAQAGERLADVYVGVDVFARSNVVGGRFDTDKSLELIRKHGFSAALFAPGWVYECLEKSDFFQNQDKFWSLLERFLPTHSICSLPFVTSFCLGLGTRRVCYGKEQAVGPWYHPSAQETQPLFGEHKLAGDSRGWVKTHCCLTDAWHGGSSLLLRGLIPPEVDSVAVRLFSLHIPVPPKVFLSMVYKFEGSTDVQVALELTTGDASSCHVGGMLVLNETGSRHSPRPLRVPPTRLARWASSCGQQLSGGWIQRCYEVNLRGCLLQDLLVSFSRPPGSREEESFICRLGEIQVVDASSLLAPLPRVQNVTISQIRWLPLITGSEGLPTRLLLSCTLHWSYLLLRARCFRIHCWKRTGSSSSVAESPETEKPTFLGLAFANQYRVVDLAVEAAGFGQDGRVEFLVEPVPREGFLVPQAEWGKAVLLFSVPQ

compound: CN[C@@H]1C[C@H]2O[C@@](C)([C@@H]1OC)n1c3ccccc3c3c4c(c5c6ccccc6n2c5c31)C(=O)NC4 [staurosporine]; assay: log2 fold change of tryptic peptide abundance, ligand vs vehicle (limited proteolysis) (log2 ratio); higher = more trypsin-susceptible (destabilized); details: ligand concentration: 20 uM; sample: mouse liver crude lysate; replicate design: treated separately

Row | Target | log2 fold change
1 | UniProt Q8C7V3 (peptide sequence: VLNFLIR, peptide start residue: 421) | -0.359
2 | UniProt Q8C8T8 (peptide sequence: VTATPLMTAK, peptide start residue: 122) | 0.0119
3 | UniProt Q8C3P7 (peptide sequence: NPEAALSPTFR, peptide start residue: 37) | 0.118
4 | UniProt Q8C0T7 (peptide sequence: HTTEPIKSEGTLQGAATTSTAR, peptide start residue: 228) | 0.759
5 | UniProt Q8BYU6 (peptide sequence: QEVAQDTLRK, peptide start residue: 232) | 1.09
6 | UniProt Q8BVU5 (peptide sequence: WVDISDQLK, peptide start residue: 311) | 0.126
7 | UniProt Q8C6B2 (peptide sequence: TFSLDAAPADHSLGPSR, peptide start residue: 518) | -0.432
8 | UniProt Q8C0L9 (peptide sequence: EFGVNGLIYDR, peptide start residue: 603) | 0.176
9 | UniProt Q8C7V8 (peptide sequence: STLDPSLK, peptide start residue: 26) | -0.234
10 | UniProt Q8C2E4 (peptide sequence: HRVEADVTFFNTLIR, peptide start residue: 512) | -0.56
11 | UniProt Q8BX80 (peptide sequence: RINEDQEEEAVFR, peptide start residue: 40) | 0.239

Looked up one by one from the list above:
Row | Target | log2 fold change
4 | UniProt Q8C0T7 (peptide sequence: HTTEPIKSEGTLQGAATTSTAR, peptide start residue: 228) | 0.759
10 | UniProt Q8C2E4 (peptide sequence: HRVEADVTFFNTLIR, peptide start residue: 512) | -0.56
